Earlier results as cited in US11028075B2, “Therapeutic compounds and methods of use thereof” (GENENTECH, INC., priority 2018, dated 2021).

Conditions: administered topically (Lidoderm patch); cited from earlier work

For CCN(CC)CC(=O)Nc1c(C)cccc1C [lidocaine], the plasma concentrations is given as “about 1 μM”.
